Read-outs that look alike come from different tables or passages of the source. These are yes or no findings as the source states them, for the method shown. Binding seen in cells or lysates may run through a third protein. Some results given as binding are weak or reduced against the parent protein; the word gives no strength.

Protein sequences, listed by entry. Tags and fused reporters are not part of them. Residues count along the entry.
UniProt P05107, residues 23-769: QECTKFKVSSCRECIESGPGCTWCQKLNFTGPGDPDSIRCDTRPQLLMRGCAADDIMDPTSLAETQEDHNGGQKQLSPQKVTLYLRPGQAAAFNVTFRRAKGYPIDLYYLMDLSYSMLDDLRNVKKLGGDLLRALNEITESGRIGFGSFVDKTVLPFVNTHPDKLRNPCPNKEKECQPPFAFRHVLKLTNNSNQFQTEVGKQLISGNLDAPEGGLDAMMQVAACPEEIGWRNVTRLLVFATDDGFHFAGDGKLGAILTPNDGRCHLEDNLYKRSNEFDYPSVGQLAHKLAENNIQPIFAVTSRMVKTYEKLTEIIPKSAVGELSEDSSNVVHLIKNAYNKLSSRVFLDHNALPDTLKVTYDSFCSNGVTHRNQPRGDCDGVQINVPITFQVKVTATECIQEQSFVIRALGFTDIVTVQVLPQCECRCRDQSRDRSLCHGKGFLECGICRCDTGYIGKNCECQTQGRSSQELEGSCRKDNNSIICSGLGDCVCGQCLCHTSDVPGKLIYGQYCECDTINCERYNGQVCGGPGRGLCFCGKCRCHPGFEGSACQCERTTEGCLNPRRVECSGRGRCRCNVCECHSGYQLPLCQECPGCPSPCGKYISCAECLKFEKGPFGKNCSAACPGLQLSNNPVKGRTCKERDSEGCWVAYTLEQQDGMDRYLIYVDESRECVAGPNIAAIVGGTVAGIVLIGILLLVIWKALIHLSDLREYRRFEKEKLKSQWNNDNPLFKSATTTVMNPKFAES
UniProt P05556: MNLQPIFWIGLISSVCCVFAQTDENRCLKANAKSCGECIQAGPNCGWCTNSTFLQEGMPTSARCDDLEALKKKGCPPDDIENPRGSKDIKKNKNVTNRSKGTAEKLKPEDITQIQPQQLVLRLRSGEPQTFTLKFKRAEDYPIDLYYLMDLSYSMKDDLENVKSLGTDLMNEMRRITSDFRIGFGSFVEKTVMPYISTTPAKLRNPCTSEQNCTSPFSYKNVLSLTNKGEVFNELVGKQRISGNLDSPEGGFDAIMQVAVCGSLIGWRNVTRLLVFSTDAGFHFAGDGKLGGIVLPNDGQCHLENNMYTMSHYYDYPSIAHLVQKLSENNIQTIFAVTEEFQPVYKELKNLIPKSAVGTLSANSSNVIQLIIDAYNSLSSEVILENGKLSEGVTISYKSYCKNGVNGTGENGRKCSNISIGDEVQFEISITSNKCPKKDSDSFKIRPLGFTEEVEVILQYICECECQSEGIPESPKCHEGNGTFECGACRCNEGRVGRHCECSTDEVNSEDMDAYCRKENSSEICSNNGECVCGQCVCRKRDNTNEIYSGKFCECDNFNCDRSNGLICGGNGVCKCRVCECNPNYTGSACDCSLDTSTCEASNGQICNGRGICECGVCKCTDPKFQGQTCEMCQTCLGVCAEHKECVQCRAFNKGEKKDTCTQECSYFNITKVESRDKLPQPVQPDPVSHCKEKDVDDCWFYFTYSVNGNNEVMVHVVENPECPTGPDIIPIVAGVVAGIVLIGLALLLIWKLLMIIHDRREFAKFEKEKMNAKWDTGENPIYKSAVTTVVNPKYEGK
UniProt P05555, residues 17-1153: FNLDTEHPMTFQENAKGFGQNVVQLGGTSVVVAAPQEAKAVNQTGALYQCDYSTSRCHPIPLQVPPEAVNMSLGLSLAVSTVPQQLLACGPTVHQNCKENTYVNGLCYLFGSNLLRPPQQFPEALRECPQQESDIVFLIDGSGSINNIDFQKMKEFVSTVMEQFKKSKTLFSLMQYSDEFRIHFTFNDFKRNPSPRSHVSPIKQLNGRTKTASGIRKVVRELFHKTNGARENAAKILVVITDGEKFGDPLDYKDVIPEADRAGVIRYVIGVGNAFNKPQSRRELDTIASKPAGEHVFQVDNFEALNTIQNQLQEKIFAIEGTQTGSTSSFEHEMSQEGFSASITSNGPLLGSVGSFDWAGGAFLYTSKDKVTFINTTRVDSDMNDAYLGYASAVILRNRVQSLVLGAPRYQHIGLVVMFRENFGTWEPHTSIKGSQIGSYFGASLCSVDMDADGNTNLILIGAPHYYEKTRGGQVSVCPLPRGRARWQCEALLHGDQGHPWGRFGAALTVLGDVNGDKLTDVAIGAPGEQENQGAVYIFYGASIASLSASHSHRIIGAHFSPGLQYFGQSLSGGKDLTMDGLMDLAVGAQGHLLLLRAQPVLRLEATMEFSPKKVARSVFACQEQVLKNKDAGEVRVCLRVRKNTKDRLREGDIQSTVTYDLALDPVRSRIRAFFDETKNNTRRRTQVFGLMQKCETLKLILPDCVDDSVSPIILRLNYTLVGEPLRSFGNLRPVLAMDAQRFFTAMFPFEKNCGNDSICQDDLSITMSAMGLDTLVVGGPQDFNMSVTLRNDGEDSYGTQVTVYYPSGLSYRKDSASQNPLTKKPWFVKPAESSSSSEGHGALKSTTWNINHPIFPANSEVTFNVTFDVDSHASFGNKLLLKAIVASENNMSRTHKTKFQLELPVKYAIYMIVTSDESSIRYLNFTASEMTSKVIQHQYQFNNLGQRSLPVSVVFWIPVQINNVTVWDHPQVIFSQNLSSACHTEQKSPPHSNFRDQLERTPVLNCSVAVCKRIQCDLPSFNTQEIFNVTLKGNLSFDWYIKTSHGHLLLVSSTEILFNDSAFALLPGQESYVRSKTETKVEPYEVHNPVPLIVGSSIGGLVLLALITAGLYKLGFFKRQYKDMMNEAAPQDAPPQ

Holding throughout (assay): co-IP
Assay [1] concerns the target β2 integrin subunit of Mac-1 (αMβ2, CD11b/CD18, CR3) (human) (UniProt P05107).
Assay [2] addresses β1 integrin subunit (human (endogenous in HEK293)) (UniProt P05556).
Assay [3] has as its target β2 integrin subunit of Mac-1 (αMβ2, CD11b/CD18, CR3) (human) (UniProt P05107). The source holds these as a separate data set.
Assay [4] has as its target CD47 (human (endogenous in HEK293 and in human monocytes)) (UniProt Q08722).
Assay [5] concerns the target mouse αM integrin subunit of Mac-1 (mouse (endogenous in peritoneal macrophages and IC-21)) (UniProt P05555).

CD47 (from UniProt Q08722 19-323): the binding result in assay [1] is on record as “binds”; in assay [2], “binds weakly”; in assay [3] it was “binds”.
With “β2 integrin subunit of Mac-1 (αMβ2, CD11b/CD18, CR3) (from UniProt P05107 23-769) (receptor)”, the binding result in assay [4] is “binds”.

B1: CD47 (mouse) (protein, UniProt Q61735 19-303)
chain: QLLFSNVNSIEFTSCNETVVIPCIVRNVEAQSTEEMFVKWKLNKSYIFIYDGNKNSTTTDQNFTSAKISVSDLINGIASLKMDKRDAMVGNYTCEVTELSREGKTVIELKNRTVSWFSPNEKILIVIFPILAILLFWGKFGILTLKYKSSHTNKRIILLLVAGLVLTVIVVVGAILLIPGEKPVKNASGLGLIVISTGILILLQYNVFMTAFGMTSFTIAILITQVLGYVLALVGLCLCIMACEPVHGPLLISGLGIIALAELLGLVYMKFVASNQRTIQPPRNR
On to B1, for which the binding result in assay [5] is recorded as “binds”.
